Laboratory results: PMC5730566
Results are given in words; binding and its absence hold for the method and conditions named. Some results given as binding are weak or reduced against the parent protein; the word gives no strength.

Molecular target: Scavenger receptor class F, member 1 (SCARF-1) (human (endogenous in liver tissue and HSEC)) (UniProt Q14162)
Assay: Western blot after SDS-PAGE; 20 ug lysate of liver tissue or cultured HSEC on 10% SDS-PAGE, blotted with anti-SCARF-1 (Abcam ab92308); ~90 kDa species called monomer, ~180 kDa species called dimer

binding: binds
B1: Scavenger receptor class F, member 1 (SCARF-1) (receptor, UniProt Q14162 20-830)
chain: SELDPKGQHVCVASSPSAELQCCAGWRQKDQECTIPICEGPDACQKDEVCVKPGLCRCKPGFFGAHCSSRCPGQYWGPDCRESCPCHPHGQCEPATGACQCQADRWGARCEFPCACGPHGRCDPATGVCHCEPGWWSSTCRRPCQCNTAAARCEQATGACVCKPGWWGRRCSFRCNCHGSPCEQDSGRCACRPGWWGPECQQQCECVRGRCSAASGECTCPPGFRGARCELPCPAGSHGVQCAHSCGRCKHNEPCSPDTGSCESCEPGWNGTQCQQPCLPGTFGESCEQQCPHCRHGEACEPDTGHCQRCDPGWLGPRCEDPCPTGTFGEDCGSTCPTCVQGSCDTVTGDCVCSAGYWGPSCNASCPAGFHGNNCSVPCECPEGLCHPVSGSCQPGSGSRDTALIAGSLVPLLLLFLGLACCACCCWAPRSDLKDRPARDGATVSRMKLQVWGTLTSLGSTLPCRSLSSHKLPWVTVSHHDPEVPFNHSFIEPPSAGWATDDSFSSDPESGEADEVPAYCVPPQEGMVPVAQAGSSEASLAAGAFPPPEDASTPFAIPRTSSLARAKRPSVSFAEGTKFAPQSRRSSGELSSPLRKPKRLSRGAQSGPEGREAEESTGPEEAEAPESFPAAASPGDSATGHRRPPLGGRTVAEHVEAIEGSVQESSGPVTTIYMLAGKPRGSEGPVRSVFRHFGSFQKGQAEAKVKRAIPKPPRQALNRKKGSPGLASGSVGQSPNSAPKAGLPGATGPMAVRPEEAVRGLGAGTESSRRAQEPVSGCGSPEQDPQKQAEEERQEEPEYENVVPISRPPEP
